In the supplement of paper PMC10338343:
± gives the standard deviation. The list shows a part of the results. The uncertainty is large for many entries.

test system: EfPiwi piRISC loaded with L1MC piRNA (26 nt); test: pre-steady-state target cleavage rate (min^-1); guide: L1MC piRNA 5'p-UAACUAAAUACUAUGCAAGCUGUAGG; MIWI and MILI are mouse PIWI proteins and EfPiwi is from a freshwater sponge; tags in brackets are library labels; higher = faster piRNA-guided slicing of the target; conditions: auxiliary factor: 500 nM Ephydatia muelleri Gtsf1
How it was run: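 Active affinity-purified piRISC carrying one synthetic guide (1 nM) was mixed with a transcribed, DNA-blocked target RNA library […] in HEPES–potassium acetate buffer at 33 °C for 0–8 or 0–960 min, with or without 500 nM GTSF1 partner protein. Uncleaved targets were then sequenced and normalised to depth and to weakly complementary targets. Three trials were pooled, and k3 was capped at 0.0001 min^-1. A burst-and-steady-state fit was applied to obtain the pre-steady-state cleavage rate.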

Sequence	pre-steady-state target cleavage rate
UCCUGGUACAGCUUGGUAAGUAUUUAGUAA	0.000243 ± 0.024
UCCUGGAUGUCGAUGGAUAGUUUUUAGUUA	0.000121 ± 0.03
UCCUCCUACAGCUUGCAUAGUUAUUAGUUA	0.0094 ± 0.0036
UCCUGGAUGUGCUUGCAUAGUAUUUUCAUA	0.000904 ± 0.0035
UCCUGGAUCAGCUUCCAUAGUAAUUAGUUA	0.000784 ± 0.0059
UCCUGGAUGUGCUUGCAUACAAUUUAGUAA	0.00154 ± 0.0075
UCCUCCUACAGCUUGGUAAGUAUUUAGAAA	0.00107 ± 0.0057
UCCUGCUACUCCUUGCAUAGUAUUUAGAAA	0.00264 ± 0.002

same assay, conditions: auxiliary factor: none (no Gtsf1)

Sequence	pre-steady-state target cleavage rate
UCCUGGAUGUCGAACCAUUGUAUUUAGUUA	< 0.0001
UCCUGGAUGUCGUUGCAAUAGUAUUUAGUUA	0.000287 ± 0.026
UCCUGGAUGUCGAUGCAUAGGAUUUAGUUA	< 0.0001
UCCUGGAUGUCGAACGUAAGUAUUUAUUA	< 0.0001
UCCUGCUAGAGCUUGCAUAGUAUUUACAAA	0.000173 ± 0.028
UCCUGGAUGUCGAACGUAUGUUAUUAGUUA	< 0.0001
UCCUCCUACAGCUUGCAAACUAUUUAGUUA	0.00112 ± 0.0063
UCCUGGAUGUCGAACGUUAGUAUUUAUUUA	0.000154 ± 0.059

Fetched one by one from the entries so far (2):
Sequence	pre-steady-state target cleavage rate
UCCUGGAUGUCGAACGUAAGUAUUUAUUA	< 0.0001
UCCUGCUAGAGCUUGCAUAGUAUUUACAAA	0.000173 ± 0.028
